Data source: PubChem BioAssay AID504791 (Drosophila RNAi Screening Center, 2011)
The screen tested about 23,000 reagents; shown is an unselected part of those with a known target gene and a result. In the full data, 199 (0.86%) were called active. 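Plate-scaled ratios behind the calls are not deposited; printed light signals are raw; many rows marked increased or decreased are still called inactive.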 Unmarked entries are inactive. Not stated in the record: the direction of the score.

Aim: 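Genes whose knock-down strengthens or weakens small-RNA reporter silencing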 (primary screen)
Cells: Drosophila S2-derived reporter cells
Knock-down reagent: long dsRNA against Drosophila genes, about 150-250 ng dsRNA per well (siRNA assay); about 80-120 ng (miRNA assay)
Duration: about 5 days (siRNA assay); about 4 days (miRNA assay)
Challenge: copper sulfate induction of reporters: 25 µM (siRNA assay); 200 mM stated (miRNA assay), 1-2 days before reading
Detection: 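Per-well ratio of Renilla over firefly light, expressed relative to that plate's average ratio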
Hit rule: 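First-pass picks had plate-scaled ratios over 1.5 for the siRNA assay, over 1.6 for the miRNA assay, or under 0.6; two distinct dsRNAs had to score alike on retest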

Which result is listed for CR18217 (pseudo) [SID104201230]?
stable assay Renilla, run 1 (luminescence): 10709; stable assay firefly, run 1 (luminescence): 5.87e5

How did the screen score Elys [SID104199363]?
stable assay Renilla, run 1 (luminescence): 8983; stable assay firefly, run 1 (luminescence): 3.73e5

How did the screen score CG14212 [SID104199360]?
stable assay Renilla, run 1 (luminescence): 5252; stable assay firefly, run 1 (luminescence): 3.16e5

For mod (modulo) [SID104196791], what does the deposit list?
stable assay Renilla, run 1 (luminescence): 8462; stable assay firefly, run 1 (luminescence): 4.48e5

For yellow-f [SID104195140], what does the deposit list?
stable assay Renilla, run 1 (luminescence): 8285; stable assay firefly, run 1 (luminescence): 6.21e5

How did the screen score rho-5 (rhomboid-5) [SID104182639]?
stable assay Renilla, run 1 (luminescence): 3867; stable assay firefly, run 1 (luminescence): 3.95e5

Which result is listed for CG9973 (retired record) [SID104188438]?
stable assay Renilla, run 1 (luminescence): 6070; stable assay firefly, run 1 (luminescence): 2.96e5

With SmydA-9 (SET and MYND domain containing, arthropod-specific, member 9) [SID104197606], what was measured?
stable assay Renilla, run 1 (luminescence): 5690; stable assay firefly, run 1 (luminescence): 4.74e5

For CG5177 [SID104182616], what does the deposit list?
stable assay Renilla, run 1 (luminescence): 10530; stable assay firefly, run 1 (luminescence): 2.78e5

What is on record for aay (astray) [SID104191112]?
stable assay Renilla, run 1 (luminescence): 7539; stable assay firefly, run 1 (luminescence): 4.39e5

Which result is listed for Flad2 (Flavin adenine dinucleotide synthetase 2) [SID104182323]?
stable assay Renilla, run 1 (luminescence): 6932; stable assay firefly, run 1 (luminescence): 4.00e5

For HisCl1 (Histamine-gated chloride channel subunit 1) [SID104194737], what does the deposit list?
stable assay Renilla, run 1 (luminescence): 8032; stable assay firefly, run 1 (luminescence): 3.64e5

How did the screen score Mks1 (Meckel syndrome, type 1) [SID104199489]?
stable assay Renilla, run 1 (luminescence): 6654; stable assay firefly, run 1 (luminescence): 6.67e5

What did the screen give for Mgtor (Megator) [SID104185750]?
stable assay Renilla, run 1 (luminescence): 6782; stable assay firefly, run 1 (luminescence): 5.10e5

For MFS18 (Major Facilitator Superfamily Transporter 18) [SID104180244], what was measured?
stable assay Renilla, run 1 (luminescence): 65489; stable assay firefly, run 1 (luminescence): 1.02e6

How did the screen score comr (cookie monster) [SID104183930]?
stable assay Renilla, run 1 (luminescence): 6319; stable assay firefly, run 1 (luminescence): 3.38e5

For Atg16 (Autophagy-related 16) [SID104194844], what was measured?
stable assay Renilla, run 1 (luminescence): 8967; stable assay firefly, run 1 (luminescence): 7.45e5

With Atg16 (Autophagy-related 16) [SID104195092], what does the deposit list?
stable assay Renilla, run 1 (luminescence): 6231; stable assay firefly, run 1 (luminescence): 3.53e5

How did the screen score Atg16 (Autophagy-related 16) [SID104195167]?
stable siRNA reporter change: reporter ratio raised past the hit cutoff; stable assay Renilla, run 1 (luminescence): 6742; stable assay firefly, run 1 (luminescence): 2.53e5

With CG14495 [SID104186258], how do the results read?
stable assay Renilla, run 1 (luminescence): 6474; stable assay firefly, run 1 (luminescence): 3.32e5

With CG33159 [SID104187991], what was measured?
stable assay Renilla, run 1 (luminescence): 4788; stable assay firefly, run 1 (luminescence): 4.49e5

How did the screen score CG18213 [SID104195108]?
stable assay Renilla, run 1 (luminescence): 7318; stable assay firefly, run 1 (luminescence): 4.84e5

What did the screen give for CG13159 [SID104186075]?
stable assay Renilla, run 1 (luminescence): 4019; stable assay firefly, run 1 (luminescence): 4.64e5

What did the screen give for pon (partner of numb) [SID104198615]?
stable assay Renilla, run 1 (luminescence): 6268; stable assay firefly, run 1 (luminescence): 3.20e5

What is on record for CG6951 [SID104190547]?
stable assay Renilla, run 1 (luminescence): 7287; stable assay firefly, run 1 (luminescence): 4.18e5

How did the screen score CG14401 [SID104182177]?
stable assay Renilla, run 1 (luminescence): 6867; stable assay firefly, run 1 (luminescence): 4.03e5

What did the screen give for CG14401 [SID104201386]?
stable assay Renilla, run 1 (luminescence): 10157; stable assay firefly, run 1 (luminescence): 6.04e5

For Zpr1 [SID104198224], how do the results read?
stable assay Renilla, run 1 (luminescence): 7296; stable assay firefly, run 1 (luminescence): 4.48e5

A run of entries taken from the entries so far, for reference:
Atg16 (Autophagy-related 16) [SID104194844] — stable assay Renilla, run 1 (luminescence): 8967; stable assay firefly, run 1 (luminescence): 7.45e5
Atg16 (Autophagy-related 16) [SID104195092] — stable assay Renilla, run 1 (luminescence): 6231; stable assay firefly, run 1 (luminescence): 3.53e5
